The target of assay [1] is native carnitine/acylcarnitine carrier purified from isolated rat liver mitochondria (rat (endogenous in rat liver mitochondria)) (UniProt P97521). Kind of assay: condition: only samples pre-treated with 0.1% w/v SDS; native gel or EMSA; Sarkosyl/PAGE (0.05% w/v Sarkosyl, 4 °C) of purified CAC in Triton X-100 or from proteoliposomes, samples pre-treated with 0.1% w/v SDS; both purified.

The target in assay [2] is recombinant carnitine/acylcarnitine carrier wild type (UniProt P97521). Kind of assay: condition: only mixed with C-lessV at the ratio 25/75 WT/C-lessV; cross-linking; recombinant CAC WT mixed with C-lessV at the ratio 25/75 WT/C-lessV, reconstituted in liposomes, incubated with Sulfo-SMPB; SDS-PAGE and immunoblot; both purified. On the technique in general: Immunoblotting shows a protein as a band on a membrane.

Here are results for two molecules from publication PMC11430254, “Insights into Transient Dimerisation of Carnitine/Acylcarnitine Carrier (SLC25A20) from Sarkosyl/PAGE, Cross-Linking Reagents, and Comparative Modelling Analysis” (Biomolecules, 2024).

These are yes or no findings as the source states them, for the method shown.

B1: native carnitine/acylcarnitine carrier purified from isolated rat liver mitochondria (natural protein, UniProt P97521 1-301, looked up)
chain: MAEEPKPISPLKNLLAGGFGGVCLVFVGHPLDTVKVRLQTQPPSLPGQPPMYSGTIDCFRKTLFREGITGLYRGMAAPIIGVTPMFAVCFFGFGLGKRLQQKSPEDELTYPQLFTAGMLSGVFTTGIMTPGERIKCLLQIQASSGKNKYSGTLDCAKKLYQEFGIRGFYKGTALTLMRDVPASGMYFMTYEWLKNLFTPQGKSVHDLSVPRVLVAGGFRGIFNWVVAIPPDVLKSRFQTAPPGKYPNGFRDVLRELIREEGVTSLYKGFNAVMIRAFPANAACFLGFEIPMKILNWIAPNL
notes: mitochondrial carnitine/acylcarnitine carrier (CAC, SLC25A20), rat, native protein from liver mitochondria; single band of apparent molecular weight 32,500 Da on SDS gel; Integral membrane protein; also called CAC; SLC25A20; source: purified from rat liver mitoplasts (3% Triton X-100 extract, hydroxyapatite, celite with cardiolipin); used in Triton X-100 or reconstituted in liposomes
As for B1, in assay [1], the binding entry is “no binding”.

B2: recombinant carnitine/acylcarnitine carrier wild type (natural protein, UniProt P97521 1-301, looked up)
chain: MAEEPKPISPLKNLLAGGFGGVCLVFVGHPLDTVKVRLQTQPPSLPGQPPMYSGTIDCFRKTLFREGITGLYRGMAAPIIGVTPMFAVCFFGFGLGKRLQQKSPEDELTYPQLFTAGMLSGVFTTGIMTPGERIKCLLQIQASSGKNKYSGTLDCAKKLYQEFGIRGFYKGTALTLMRDVPASGMYFMTYEWLKNLFTPQGKSVHDLSVPRVLVAGGFRGIFNWVVAIPPDVLKSRFQTAPPGKYPNGFRDVLRELIREEGVTSLYKGFNAVMIRAFPANAACFLGFEIPMKILNWIAPNL
notes: also called CAC WT; WT; source: overexpressed from cDNA cloned in pMW7, purified, reconstituted in liposomes
Regarding B2, the binding result in assay [2] is “no binding”.
